Source: article doi:10.1101/115071
Results are given in words; binding and its absence hold for the method and conditions named. Some binding calls cover weakened binding; strength is not graded here. Where a sequence is shown, tags or fusion partners need not be part of it. Values belong to the binder of their own block, whether it stands above or below them.

Chains of the proteins cited; added tags and fusions are not shown.
UniProt Q9FTA2: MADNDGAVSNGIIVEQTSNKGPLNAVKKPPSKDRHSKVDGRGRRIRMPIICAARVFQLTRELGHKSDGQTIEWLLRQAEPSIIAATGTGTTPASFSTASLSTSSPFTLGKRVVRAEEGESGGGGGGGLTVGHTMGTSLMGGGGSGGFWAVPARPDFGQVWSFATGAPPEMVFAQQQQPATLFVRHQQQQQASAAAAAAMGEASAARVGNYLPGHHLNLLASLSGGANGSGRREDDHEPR

Key:
[1] = target: GAL4-BD-CHE (Arabidopsis thaliana) (UniProt Q9FTA2); assay: two-hybrid
[2] = target: T1, GAL4-BD-TOC1 (Arabidopsis thaliana) (UniProt Q9LKL2); assay: two-hybrid
T1 sequence: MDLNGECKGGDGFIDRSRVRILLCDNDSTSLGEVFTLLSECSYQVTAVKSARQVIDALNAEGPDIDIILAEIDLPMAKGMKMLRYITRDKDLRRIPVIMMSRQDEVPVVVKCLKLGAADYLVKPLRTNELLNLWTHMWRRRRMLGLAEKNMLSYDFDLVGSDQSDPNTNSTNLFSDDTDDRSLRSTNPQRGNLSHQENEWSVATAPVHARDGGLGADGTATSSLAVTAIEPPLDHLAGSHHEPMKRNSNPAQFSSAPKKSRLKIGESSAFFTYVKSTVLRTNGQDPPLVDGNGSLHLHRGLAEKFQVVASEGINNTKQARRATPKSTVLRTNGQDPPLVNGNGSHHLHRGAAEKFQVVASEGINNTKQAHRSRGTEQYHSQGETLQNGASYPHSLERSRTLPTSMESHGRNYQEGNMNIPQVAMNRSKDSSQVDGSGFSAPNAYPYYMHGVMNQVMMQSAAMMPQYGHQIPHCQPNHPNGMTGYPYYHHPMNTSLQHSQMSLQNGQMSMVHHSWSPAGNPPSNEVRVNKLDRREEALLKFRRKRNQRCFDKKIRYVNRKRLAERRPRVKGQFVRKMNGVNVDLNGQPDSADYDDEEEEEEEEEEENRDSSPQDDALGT

binding [1]: binds
B1: GAL4-AD-ZTL decoy (domain or fragment, UniProt Q94BT6 1-196; Q94BT6 246-609)
chain: MEWDSGSDLSADDASSLADDEEGGLFPGGGPIPYPVGNLLHTAPCGFVVTDAVEPDQPIIYVNTVFEMVTGYRAEEVLGGNCRFLQCRGPFAKRRHPLVDSMVVSEIRKCIDEGIEFQGELLNFRKDGSPLMNRLRLTPIYGDDDTITHIIGIQFFIETDIDLGPVLGSSTKEKSIDGIYSALAAGERNVSRGMCGWGSETTRVLETVPGAKRLGWGRLARELTTLEAAAWRKLSVGGSVEPSRCNFSACAVGNRVVLFGGEGVNMQPMNDTFVLDLNSDYPEWQHVKVSSPPPGRWGHTLTCVNGSNLVVFGGCGQQGLLNDVFVLNLDAKPPTWREISGLAPPLPRSWHSSCTLDGTKLIVSGGCADSGVLLSDTFLLDLSIEKPVWREIPAAWTPPSRLGHTLSVYGGRKILMFGGLAKSGPLKFRSSDVFTMDLSEEEPCWRCVTGSGMPGAGNPGGVAPPPRLDHVAVNLPGGRILIFGGSVAGLHSASQLYLLDPTEDKPTWRILNIPGRPPRFAWGHGTCVVGGTRAIVLGGQTGEEWMLSELHELSLASYLT

binding [1]: binds
binding [2]: binds
B2: GAL4-AD-ZTL LOV domain (domain or fragment, UniProt Q94BT6 1-196)
chain: MEWDSGSDLSADDASSLADDEEGGLFPGGGPIPYPVGNLLHTAPCGFVVTDAVEPDQPIIYVNTVFEMVTGYRAEEVLGGNCRFLQCRGPFAKRRHPLVDSMVVSEIRKCIDEGIEFQGELLNFRKDGSPLMNRLRLTPIYGDDDTITHIIGIQFFIETDIDLGPVLGSSTKEKSIDGIYSALAAGERNVSRGMCG
